PubChem BioAssay (NCATS)
The shares of active, inactive and inconclusive entries below differ from those in the screen. For some assays here: Where the call is inconclusive, the potency comes from a doubtful curve fit. Some structures have more than one record in an assay (separate samples or runs), and their calls can disagree. The source made the active and inactive calls. Unless noted, calls follow the shape of the dose curve; as a rule, active = well fitted curve in the direction sought with a large enough effect; inconclusive = small, poorly fitted or top-dose-only effect, or another doubt; inactive = no such curve, though single readings can be large; an effect the other way counts as inactive or inconclusive.

Assays:
[1] = Quantitative High-Throughput drug screen in 47 multiple myeloma cell lines against the NCATS MIPE library collection: ARD_JJKsccE7 cell viability assay (AID 1918929; also: potency is read from the fitted curve at half-maximal effect); conditions: ARD myeloma cell line viability, CellTiter-Glo, 48 h; viability: at 45.8 µM (top of the series)
Outline: (§1)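 Approved and investigational drugs from MIPE 4.0 were added by pin tool to 500 cells per well. After 48 hours at 37C, ATP-based CellTiter-Glo luminescence indicated remaining viability.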

[2] = Quantitative High-Throughput drug screen in 47 multiple myeloma cell lines against the NCATS MIPE library collection: KMM1_JCRB cell viability assay (AID 1918960); also: potency is read from the fitted curve at half-maximal effect; nearly all actives have a fitted effect of over 30% in size
Outline: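 Each line was plated at 500 cells/well and treated 48 h with library drugs. Viability came from CellTiter-Glo luminescence relative to DMSO and cell-free medium controls.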

[3] = Quantitative High-Throughput drug screen in 47 multiple myeloma cell lines against the NCATS MIPE library collection: Karpas417_ECACC cell viability assay (AID 1918961); conditions: Karpas417 myeloma viability, CellTiter-Glo ATP luminescence, 48 h; viability (% of DMSO): at 45.8 µM (top of the series); also: potency is read from the fitted curve at half-maximal effect
Outline: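 Inhibition of cell viability is measured here. Each line was plated at 500 cells per well, treated with MIPE 4.0 drugs, kept 48 hours at 37C, then assayed for ATP content by CellTiter-Glo luminescence.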

[4] = Quantitative High-Throughput drug screen in 47 multiple myeloma cell lines against the NCATS MIPE library collection: JJN3_DSMZ cell viability assay (AID 1918966; also: potency is read from the fitted curve at half-maximal effect; nearly all actives have a fitted effect of over 50% in size)
Outline: as §1

[5] = Quantitative High-Throughput drug screen in 47 multiple myeloma cell lines against the NCATS MIPE library collection: KMS12BM_JCRB cell viability assay (AID 1918971); also: potency is read from the fitted curve at half-maximal effect; nearly all actives have a fitted effect of over 35% in size
Outline: as §1

[6] = Quantitative High-Throughput drug screen in 47 multiple myeloma cell lines against the NCATS MIPE library collection: KMS20_JCRB cell viability assay (AID 1918973); conditions: CellTiter-Glo ATP, 48 h; viability (% of DMSO): at 45.8 µM (top of the series); also: potency is read from the fitted curve at half-maximal effect; nearly all actives have a fitted effect of over 45% in size
Outline: as §1

[7] = Quantitative High-Throughput drug screen in 47 multiple myeloma cell lines against the NCATS MIPE library collection: KMS26_JCRB cell viability assay (AID 1918975); also: potency is read from the fitted curve at half-maximal effect; nearly all actives have a fitted effect of over 45% in size
Outline: as §1

[8] = Quantitative High-Throughput drug screen in 47 multiple myeloma cell lines against the NCATS MIPE library collection: MMM1_PLB cell viability assay (AID 1918976); also: potency is read from the fitted curve at half-maximal effect; nearly all actives have a fitted effect of over 35% in size
Outline: (§2)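 ATP-based luminescence (CellTiter-Glo, 5 min RT incubation) quantified surviving cells following two days' treatment with MIPE 4.0 agents at 37 °C, 5% CO2.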

[9] = Quantitative High-Throughput drug screen in 47 multiple myeloma cell lines against the NCATS MIPE library collection: MOLP8_DSMZ cell viability assay (AID 1918977); also: potency is read from the fitted curve at half-maximal effect; nearly all actives have a fitted effect of over 45% in size
Outline: as §2

[10] = Quantitative High-Throughput drug screen in 47 multiple myeloma cell lines against the NCATS MIPE library collection: MM1S_ATCC cell viability assay (AID 1918980); also: potency is read from the fitted curve at half-maximal effect; nearly all actives have a fitted effect of over 45% in size
Outline: as §2

[11] = Quantitative High-Throughput drug screen in 47 multiple myeloma cell lines against the NCATS MIPE library collection: LP1_DSMZ cell viability assay (AID 1918982); also: potency is read from the fitted curve at half-maximal effect; nearly all actives have a fitted effect of over 35% in size
Outline: as §2

[12] = Quantitative High-Throughput drug screen in 47 multiple myeloma cell lines against the NCATS MIPE library collection: L363_DSMZ cell viability assay (AID 1918984); conditions: L363 myeloma viability, CellTiter-Glo ATP luminescence, 48 h; viability (% of control): at 45.8 µM (top of the series); also: potency is read from the fitted curve at half-maximal effect; nearly all actives have a fitted effect of over 40% in size
Outline: as §2

[13] = Quantitative High-Throughput drug screen in 47 multiple myeloma cell lines against the NCATS MIPE library collection: UTMC2_PLB cell viability assay (AID 1919868); conditions: CellTiter-Glo ATP luminescence, 48 h; viability (% of DMSO control): at 45.8 µM (top of the series); also: potency is read from the fitted curve at half-maximal effect; nearly all actives have a fitted effect of over 55% in size
Outline: as §2

[14] = qHTS for identification of novel therapeutic agents for treatment of microphthalmiaassociated transcription factor (MiT) renal cell carcinoma (RCC) (AID 1963991; calls by dose curve; also: potency is read from the fitted curve at half-maximal effect); conditions: TFE3-RCC UOK109 viability, CellTiter-Glo, 48 h; active = Z-AUC below -0.8 in all three lines
Outline: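 Three TFE3-fusion RCC cell lines (UOK109, UOK124, UOK145), 500 cells/well, were exposed to the 1912-compound MIPE 4.0 library for 48 hours at 37 C. Viability was read by CellTiter-Glo luminescence, normalised to DMSO (100%) and empty wells (0%), with 11-concentration curve fits.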

CP203 = assay: qHTS profiling for inhibitors of Plasmodium falciparum proliferation (AID 504749);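 also: 0% = DMSO vehicle and full inhibition = artemisinin control; nearly all actives have a fitted effect of over 60% in size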; conditions: P. falciparum in erythrocytes, SYBR Green DNA, 72 h; activity, negative = inhibition: at 28.7 µM (top of the series)
Outline: (§3)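 In a 72 h erythrocytic culture (37 C, humidified, 5% CO2) at 2.5% hematocrit and 0.3% starting parasitemia, compounds were tested; SYBR Green I in detergent lysis buffer stained parasite DNA overnight.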

CP215 = assay: as above; conditions: P. falciparum in erythrocytes, SYBR Green DNA, 72 h; series mostly up to 28.7 µM
Outline: as §3

CP268 = assay: as above; conditions: P. falciparum in erythrocytes, SYBR Green DNA, 72 h; series mostly up to 28.7 µM
Outline: as §3

CP269 = assay: as above; conditions: P. falciparum in erythrocytes, SYBR Green DNA, 72 h; series mostly up to 28.7 µM
Outline: as §3

HB3 = assay: as above; conditions: P. falciparum in erythrocytes, SYBR Green DNA, 72 h; series mostly up to 28.7 µM
Outline: as §3

PAD = assay: as above; conditions: P. falciparum in erythrocytes, SYBR Green DNA, 72 h; series mostly up to 28.7 µM
Outline: as §3

PC49 = assay: as above; conditions: P. falciparum in erythrocytes, SYBR Green DNA, 72 h; series mostly up to 28.7 µM
Outline: as §3

W2 = assay: as above; conditions: P. falciparum in erythrocytes, SYBR Green DNA, 72 h; series mostly up to 28.7 µM
Outline: as §3

HaCat = assay: Cytotoxic Profiling of Annotated Libraries Using Quantitative High-Throughput Screening (AID 1296008); conditions: Five cell lines viability, CellTiter-Glo ATP luminescence, 48-72 h; max response: active compounds read low; also: nearly all actives have a fitted effect of over 60% in size; also: potency is read from the fitted curve at half-maximal effect; as to max response: % is scaled to controls: 0 for no effect and ±100 for the full control effect
Outline: (§4)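 Cytotoxicity was measured as CellTiter-Glo ATP luminescence, read after 10 min at room temperature. Compound treatment of the cells lasted 48 or 72 hr at 37 degrees Celsius in a qHTS format.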

NIH3T3 = assay: as above; conditions: Five cell lines viability, CellTiter-Glo ATP luminescence, 48-72 h; max response: active compounds read low
Outline: as §4

C33A = assay: Primary qHTS to identify gynecologic anti-cancer compounds using libraries of approved drugs and bioactive compounds (AID 1345084); conditions: Gynecologic cancer cell panel viability, ATPlite luminescence, 48 h; series mostly up to 57.5 µM; also: % is scaled to controls: 0 for no effect and ±100 for the full control effect; nearly all actives have a fitted effect of over 55% in size
Outline: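 ATP-based viability (ATPlite), 1,000 cells/well, 16 h pre-incubation, 48 h compound at 37 C, 5% CO2, 15 min RT before read.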

[15] = Drug repurposing screens with cells derived from glioblastoma tumor samples (AID 1345199); conditions: GBM patient neurospheres viability, ATP luminescence, 48 h; Potency: tumour line A unless noted; activity, negative = cell killing: at 46 µM (top of the series), tumour line A unless noted; also: % is scaled to controls: 0 for no effect and ±100 for the full control effect; nearly all actives have a fitted effect of over 40% in size
Outline: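 Primary testing used CD133+ neurospheres from four GBM patients, seven concentrations, 48 h exposure and ATP-based viability; confirmation added three slower-growing patient lines.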

MCC-13 = assay: qHTS assay to identify novel small-molecules to repurpose for Merkel cell carcinoma treatment (AID 1296009); conditions: MCC and control cell lines, CellTiter-Glo viability, 72 h; series mostly up to 46 µM; also: potency is read from the fitted curve at half-maximal effect; nearly all actives have a fitted effect of over 60% in size
Outline: (§5)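 Cell viability measured by CellTiter-Glo following 72 hr compound treatment at 37 degree celsius, with NPC and MIPE libraries tested in 8- and 11-point concentration series.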

MCC-26 = assay: as above; conditions: MCC and control cell lines, CellTiter-Glo viability, 72 h; activity change, negative = cytotoxicity: at 46 µM (top of the series)
Outline: as §5

MKL-1 = assay: as above; conditions: MCC and control cell lines, CellTiter-Glo viability, 72 h; activity change, negative = cytotoxicity: at 46 µM (top of the series)
Outline: as §5

MKL-2 = assay: as above; conditions: MCC and control cell lines, CellTiter-Glo viability, 72 h; activity change, negative = cytotoxicity: at 46 µM (top of the series)
Outline: as §5

UISO = assay: as above; conditions: MCC and control cell lines, CellTiter-Glo viability, 72 h; activity change, negative = cytotoxicity: at 46 µM (top of the series)
Outline: as §5

## Cc1cn[nH]c1
[1]
  Potency: inconclusive: 37200 nM [rising, single point]
[2]
  Potency: active: 526 nM
[3]
  Potency: inconclusive: 1480 nM [cytotoxic, partial curve, poor fit]
[4]
  Potency: active: 1480 nM
[5]
  Potency: active: 13.2 nM
[6]
  Potency: active: 332 nM
[7]
  Potency: inconclusive: 2.1 nM [cytotoxic, full curve, poor fit]
[8]
  Potency: inconclusive: 2090 nM [cytotoxic, full curve, poor fit]
[9]
  Potency: inconclusive: 1.2 nM [cytotoxic, full curve, poor fit]
[10]
  Potency: active: 332 nM
[11]
  Potency: inconclusive: 148 nM [cytotoxic, full curve]
[12]
  Potency: active: 469 nM
[13]
  Potency: inconclusive: 5260 nM [cytotoxic, partial curve, poor fit]
[14]
  Potency: inconclusive: 590 nM [falling, partial curve]
CP203
  Potency: inactive
CP215
  Potency: inactive
CP268
  Potency: inactive
CP269
  Potency: inactive
HB3
  Potency: inactive
PAD
  Potency: inactive
PC49
  Potency: inactive
W2
  Potency: inactive
HaCat
  max response: inactive: -8.18%
  outcome: inactive
NIH3T3
  Potency: inconclusive: 23500 nM [inhibitor, partial curve]
C33A
  Potency: inactive
[15]
  Potency: inactive
MCC-13
  Potency: inconclusive: 7430 nM [inhibitor, single point]
MCC-26
  Potency: inconclusive: 7430 nM [inhibitor, single point]
MKL-1
  Potency: active: 5900 nM
MKL-2
  Potency: inconclusive: 5900 nM [inhibitor, partial curve]
UISO
  Potency: active: 2960 nM
